Construct, isoform or probe ends are uncertain for at least one entry. For some assays here: At least one result comes from cells or an extract, where the contact may be indirect.
Assays:
[1] = system: E2F4-DP1-p107 complex (p107 aa 744-2460 as printed); experiment: EMSA; conditions: purified recombinant protein, protein details: GST fusion, E. coli, label: 32P
[2] = system: E2F1-DP1-pRb complex (pRb aa 300-928); experiment: EMSA; conditions: strength comparable to other E2F complexes; purified recombinant protein; protein details: GST fusion, E. coli; label: 32P
[3] = system: E2F4-DP1-p107 complex (p107 aa 744-2460 as printed); experiment: footprint; conditions: DMS methylation protection, indistinguishable from E2F4-DP1; purified recombinant protein; protein details: GST fusion, E. coli; label: 32P
[4] = system: HeLa nuclear protein(s) binding B-myb CHR (Homo sapiens); experiment: EMSA; conditions: HeLa nuclear extract; protein unidentified; probe not given; protein in an extract; protein details: HeLa nuclear extract

GATCGACTAGTTTCGCGCCCTTTCTACTAG (double strand) [E2a adenovirus promoter probe]
binding result ([1]; similar affinity to B-myb site): binds

GGCGCCGACGCACTTGGCGGGAGATAGGAAAGTGGTTCTGTG (double strand) [B-myb E2F site probe]
binding result [2]: binds
binding result ([1]; strength comparable to other E2F complexes, same DMS footprint as E2F4-DP1): binds
binding result [3]: binds

TAGGAAA (double strand) [B-myb CHR]
binding result [4]: binds

— patent US5885833
